Test results published in paper PMC5768788.
These are yes or no findings as the source states them, for the method shown. Binding seen in cells or lysates may run through a third protein. Some results given as binding are weak or reduced against the parent protein; the word gives no strength.

Protein sequences, listed by entry. Tags and fused reporters are not part of them.
UniProt P15056: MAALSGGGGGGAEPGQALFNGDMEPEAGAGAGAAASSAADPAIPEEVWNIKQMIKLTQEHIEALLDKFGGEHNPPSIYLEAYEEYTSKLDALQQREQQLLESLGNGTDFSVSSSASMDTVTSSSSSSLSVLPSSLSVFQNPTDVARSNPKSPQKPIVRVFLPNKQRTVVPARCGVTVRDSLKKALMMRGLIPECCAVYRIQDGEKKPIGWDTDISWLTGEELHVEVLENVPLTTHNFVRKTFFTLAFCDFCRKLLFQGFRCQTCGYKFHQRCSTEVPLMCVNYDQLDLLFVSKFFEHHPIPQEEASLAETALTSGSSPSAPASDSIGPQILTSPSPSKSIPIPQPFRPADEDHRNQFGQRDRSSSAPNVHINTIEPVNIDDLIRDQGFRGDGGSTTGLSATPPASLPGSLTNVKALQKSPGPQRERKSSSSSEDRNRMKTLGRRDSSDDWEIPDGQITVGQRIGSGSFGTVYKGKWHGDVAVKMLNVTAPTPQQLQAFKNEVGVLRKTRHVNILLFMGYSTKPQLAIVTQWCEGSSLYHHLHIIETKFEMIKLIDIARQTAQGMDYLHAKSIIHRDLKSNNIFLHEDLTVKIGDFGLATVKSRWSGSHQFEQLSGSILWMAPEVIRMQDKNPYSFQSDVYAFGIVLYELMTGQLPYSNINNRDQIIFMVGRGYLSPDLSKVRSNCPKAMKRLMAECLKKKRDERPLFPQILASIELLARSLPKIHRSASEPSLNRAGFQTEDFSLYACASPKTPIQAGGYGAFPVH
UniProt P29590: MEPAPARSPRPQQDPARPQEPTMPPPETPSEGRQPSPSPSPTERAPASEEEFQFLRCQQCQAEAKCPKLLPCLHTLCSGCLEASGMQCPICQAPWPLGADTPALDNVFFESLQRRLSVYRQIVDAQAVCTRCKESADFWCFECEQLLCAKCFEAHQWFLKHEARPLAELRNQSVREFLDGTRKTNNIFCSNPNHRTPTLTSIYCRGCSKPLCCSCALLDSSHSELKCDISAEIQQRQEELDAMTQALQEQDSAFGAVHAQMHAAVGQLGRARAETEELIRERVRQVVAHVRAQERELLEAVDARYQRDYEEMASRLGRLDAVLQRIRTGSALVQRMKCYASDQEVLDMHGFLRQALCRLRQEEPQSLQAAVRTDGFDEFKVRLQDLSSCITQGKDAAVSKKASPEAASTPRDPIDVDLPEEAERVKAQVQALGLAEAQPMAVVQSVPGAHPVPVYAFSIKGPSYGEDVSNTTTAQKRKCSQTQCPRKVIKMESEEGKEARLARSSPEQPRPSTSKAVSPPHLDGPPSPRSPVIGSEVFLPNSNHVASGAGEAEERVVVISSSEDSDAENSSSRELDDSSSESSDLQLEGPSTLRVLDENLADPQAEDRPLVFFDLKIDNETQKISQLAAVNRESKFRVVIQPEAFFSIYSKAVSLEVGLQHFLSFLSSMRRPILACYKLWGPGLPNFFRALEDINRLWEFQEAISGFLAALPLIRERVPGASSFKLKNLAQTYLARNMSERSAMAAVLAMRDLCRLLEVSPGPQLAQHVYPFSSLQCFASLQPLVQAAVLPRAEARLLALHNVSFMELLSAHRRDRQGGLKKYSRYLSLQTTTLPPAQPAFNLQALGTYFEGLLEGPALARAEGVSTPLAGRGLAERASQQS

How the values were obtained:
[1] = molecular target: protein phosphatase 1α (PP1α), catalytic subunit, endogenous in PC3 cells (human (endogenous in PC3)) (UniProt P62136); assay: co-IP; endogenous proteins from PC3 cell lysate (50 mM Tris pH 7.5, 10% glycerol, 5 mM MgCl2, 150 mM NaCl, 0.2% NP-40); anti-PML, anti-PP1α or anti-B-Raf antibody overnight at 4 °C, protein G sepharose, immunoblot
[2] = molecular target: T1, Rb (UniProt P06400); assay: co-IP; Supplementary Fig. 2g; legend not shown; anti-Rb is listed among the antibodies used for immunoprecipitation from cell lysates
T1 sequence: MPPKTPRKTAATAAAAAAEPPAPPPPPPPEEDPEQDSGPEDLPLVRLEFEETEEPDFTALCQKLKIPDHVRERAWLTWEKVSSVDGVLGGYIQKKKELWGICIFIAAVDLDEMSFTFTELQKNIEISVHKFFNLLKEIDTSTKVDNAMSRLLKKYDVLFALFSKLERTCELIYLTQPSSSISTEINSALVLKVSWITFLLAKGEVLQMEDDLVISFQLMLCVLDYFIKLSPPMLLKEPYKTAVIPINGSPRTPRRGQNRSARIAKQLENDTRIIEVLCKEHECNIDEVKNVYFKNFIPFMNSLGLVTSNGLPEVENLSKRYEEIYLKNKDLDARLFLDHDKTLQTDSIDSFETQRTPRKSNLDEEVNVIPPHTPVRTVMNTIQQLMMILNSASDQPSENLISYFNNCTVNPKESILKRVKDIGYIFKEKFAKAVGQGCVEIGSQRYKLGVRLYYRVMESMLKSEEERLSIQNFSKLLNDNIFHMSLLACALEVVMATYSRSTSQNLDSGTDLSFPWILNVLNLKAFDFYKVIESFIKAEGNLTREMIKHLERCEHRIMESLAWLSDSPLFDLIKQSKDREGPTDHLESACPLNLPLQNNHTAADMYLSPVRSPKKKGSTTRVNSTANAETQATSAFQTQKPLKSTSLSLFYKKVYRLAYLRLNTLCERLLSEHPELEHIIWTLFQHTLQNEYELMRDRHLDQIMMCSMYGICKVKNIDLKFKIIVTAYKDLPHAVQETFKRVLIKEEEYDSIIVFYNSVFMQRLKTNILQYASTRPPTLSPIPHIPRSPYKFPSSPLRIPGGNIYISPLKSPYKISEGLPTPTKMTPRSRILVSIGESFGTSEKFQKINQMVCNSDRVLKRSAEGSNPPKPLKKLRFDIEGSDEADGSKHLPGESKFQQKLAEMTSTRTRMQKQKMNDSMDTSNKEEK

[3] = molecular target: B-Raf, endogenous in PC3 cells (human (endogenous in PC3)) (UniProt P15056); assay: co-IP; endogenous proteins from PC3 cell lysate (50 mM Tris pH 7.5, 10% glycerol, 5 mM MgCl2, 150 mM NaCl, 0.2% NP-40); anti-PML, anti-PP1α or anti-B-Raf antibody overnight at 4 °C, protein G sepharose, immunoblot
[4] = molecular target: promyelocytic leukemia (PML) tumor suppressor, endogenous in PC3 cells (human (endogenous in PC3)) (UniProt P29590); assay: as above

binding [1]	Substance	also measured
binds	B-Raf, endogenous in PC3 cells (from UniProt P15056 1-766)	
no binding	C-Raf, endogenous in PC3 cells (from UniProt P04049 1-648)	
	PP1α in the Rb binding experiment of Supplementary Fig. 2g (from UniProt P62136 1-330)	binding [2]: binds
binds	promyelocytic leukemia (PML) tumor suppressor, endogenous in PC3 cells (from UniProt P29590 1-882)	
	protein phosphatase 1α (PP1α), catalytic subunit, endogenous in PC3 cells (from UniProt P62136 1-330)	binding [3]: binds; binding [4]: binds
